# The supplement of paper PMC5407854, “Inhibitor of ppGalNAc-T3-mediated O-glycosylation blocks cancer cell invasiveness and lowers FGF23 levels” (eLife, 2017)
# In all, about 1,700 compounds were measured (“T3 sensor activation Q score (MG/GFP ratio z-score vs DMSO controls)”: median about 0.25, highest 2% from about 1.9 on). The list shows a part of the results.
# Test system: ppGalNAc-T3 sensor
# Test: T3 sensor activation Q score (MG/GFP ratio z-score vs DMSO controls) (SD units); higher = more sensor activation (inhibition of ppGalNAc-T3 glycosylation)
# Conditions: HEK293 sensor cells; 10 µM; 6 h
# Description: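 Cells were treated with compound at 10 uM for 6 h, then MG/GFP ratio was read by flow cytometry (10,000 cells per well, duplicate wells). Q = (R - R_neg)/SD_neg relative to DMSO vehicle controls; the signal rises when the glycosyltransferase is inhibited.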
row,SMILES,T3 sensor activation Q score
1,CCCOc1ccc(-c2nc(-c3ccc(N)cc3)cs2)cc1,-0.3
2,Cc1ccc(Nc2nccc(N(C)c3ccc4c(C)n(C)nc4c3)n2)cc1S(N)(=O)=O,0.2
3,CC(C)(C)C(=O)Nc1ccc(NC(=O)C(C)(C)C)cc1,-0.35
4,COc1ccc2c(C)cc(C)nc2n1,-1.35
5,Cc1c(O)ccc2c(O)c(NC(=O)c3ccc4c(c3)CCC(C)(C)O4)c(=O)oc12,0.9
6,COC(=O)c1cc(C)c(C)cc1NC1OC(CO)C(O)C1O (configuration not stated),0.5
7,COC(=O)C1=C(C)NC(C)=C(C(=O)OC)C(N2C(=O)CCC2=O)C1 (configuration not stated),1
8,O=C(Nc1ccccc1)C1=C(Nc2ccccc2)CSC1,-1.15
9,Nc1nc(N)c(N=Nc2ccc(S(N)(=O)=O)cc2)c(=O)[nH]1,-0.25
10,O=c1cc[nH]c2c(Cl)cccc12,-1.25
11,O=C(Nc1nnc(C(F)(F)F)s1)c1c(F)cccc1F,0.45
12,CN1C=C/C(=C\[N+](=O)[O-])N(C)C1=O,-0.45
13,CN1C(=O)c2ccccc2Cc2c(NCc3ccccc3)ncnc21,0.9
14,NC(=O)Nc1ccc(Nc2ccccc2)cc1,0.7
15,Nc1ccc(Nc2ccccc2)c(S(=O)(=O)O)c1,1
16,Cc1cc2nc(-c3ccccn3)c(-c3ccccn3)nc2cc1C,1.35
17,CCSc1nc(=S)cc(C)[nH]1,0
18,COc1cc(O)c(C(=O)/C=C/c2ccccc2)c(OC)c1,0.1
19,O=C(O)c1cc2cc(OCc3ccccc3)ccc2[nH]1,0.1
20,O=c1[nH]cnc2c1ncn2Cc1ccc([N+](=O)[O-])cc1,0.15
21,CC1CCCC(CC(=O)O)(CC(=O)O)C1 (configuration not stated),0.75
22,CC(C)Oc1ccc(C(=O)O)cc1,-1.8
23,CS/C(=C\c1ccc(C(=O)c2ccc(C)cc2)n1C)[S+](C)[O-] (configuration not stated),-0.45
24,c1ccc2c(c1)Nc1cc3ccccc3cc1S2,-0.45
25,O=[N+]([O-])c1ccc2c3ccccc3[s+]([O-])c2c1 (configuration not stated),0.5
26,Cc1ccc(NC(=O)N2CCCCC2)cc1[N+](=O)[O-],1.55

row,SMILES,T3 sensor activation Q score
1,CSc1nc(Cl)c(Br)c(Nc2c[nH]c(=O)[nH]c2=O)n1,1
2,CSc1n[nH]c(-c2cccs2)n1,-1.35
3,CCOC(=O)Nc1c(Cl)n(C)c(=O)n(C)c1=O,1.75
4,C=CCNC(=S)NCC,1.9
5,CCOC(=O)C1(C#N)C(=O)CSC1=Nc1ccccc1Cl (configuration not stated),-1.05
6,O=C(c1ccccc1)c1ccc(Sc2ccc([N+](=O)[O-])cc2)cc1,-0.5
7,CN1CCN(C(=O)Nc2ccc([N+](=O)[O-])cc2)CC1,0.8
8,Cn1ncc2c(Nc3ccc(Br)cc3)nc(Nc3ccc(Br)cc3)nc21,-1.2
9,Nc1ccccc1-n1nc2ccc3ccccc3c2n1,-0.85
10,Clc1ccc(C(c2ccccc2Cl)C(Cl)Cl)cc1 (configuration not stated),1.1
11,CCC(=Cc1ccc(CC)cn1)CC,-1.25
12,Cn1ncc2c(Sc3ccc(Cl)cc3)ncnc21,0.65
13,CN(C)Cc1cc(C(F)(F)F)ccc1C(O)(c1ccccc1)c1ccccc1,1.3
14,CCNc1nc(NC(C)C)nc(-c2ccncc2)n1,1.1
15,O=c1ccnc(Nc2ccc(Cl)cc2)[nH]1,0.15
16,Cc1c(NC(=O)Nc2c(Cl)cccc2Cl)c(=O)n(-c2ccccc2)n1C,0.1
17,CCOC(=O)c1nn(-c2ccccc2)cc1O,0.05
18,N/C(CC(=O)Nc1cc(C(F)(F)F)ccc1Cl)=N\O,0.4
19,CCCc1cc(=O)oc2c3c(c4c(c12)OC(C)(C)C=C4)O[C@H](C)[C@@H](C)[C@@H]3O,-0.8
20,COc1c(C=O)c2c(c(OC)c1OC)-c1ccc(OC)c(=O)cc1C(NC(C)=O)CC2 (configuration not stated),4.1
21,O=c1nc(Oc2ccccc2)nc2ncccn12,-0.5
22,CCC(C)n1c(C)cc(=O)n1C(C)CC (configuration not stated),-0.6
23,c1ccn(CCc2ccncc2)c1,0.75
24,CC1=NC(C)(C)CC2CCC(O)C12 (configuration not stated),0.7
25,Nc1nc(Cl)cc(Nc2ccccc2Cl)n1,0.65
26,CN(C)c1ccc(/C=C/C(=O)c2cc(Cl)ccc2O)cc1,-1.65

row,SMILES,T3 sensor activation Q score
1,NC1(N2SC(S)=C3CCCC=C32)CCCCC1,0.75
2,Cc1cccn2c(=S)[nH]nc12,-0.2
3,CCSc1nc(C)c(C)c(=O)[nH]1,-1.1
4,OC(COc1ccc(Cl)cc1)CN1CCN(c2cccc(Cl)c2)CC1 (configuration not stated),-0.65
5,CCOC(=O)/C(=N\O)C1=CSC2=NNC(C)(C)N12,-0.1
6,Oc1ccc(Cc2ccc(Cl)cc2)c(O)c1,-0.85
7,CCCCOc1ccc(OC(=O)Nc2cc(Cl)ccc2OC)cc1,0.9
8,COc1ccc(CC(=O)c2ccc(O)cc2O)cc1,-0.4
9,CCOC(=O)c1nc2sc3c(c2c(=O)[nH]1)CCCC3,1.55
10,CCOC(=O)CCCN(c1[nH]c(C)c(C)c1C#N)S(=O)(=O)c1ccc(C)cc1,-0.3
11,O=C(O)c1ccc2c(c1Sc1ccccc1)C(=O)c1ccccc1C2=O,0.45
12,C(=C\CSc1ccccn1)/CSc1ccccn1,0.8
13,O=C(Nc1ccc(Cl)c([N+](=O)[O-])c1)Nc1nc2ccccc2s1,0.3
14,Cc1cc(NC(=O)OC(C)C)ccc1-c1ccc(NC(=O)OC(C)C)cc1C,-0.7
15,CN(C(=O)c1ccncc1)c1ccccc1,0.2
16,O=c1[nH]c2nc(Cl)nc(Cl)c2[nH]1,0.2
17,CCOC(=O)c1cc(OCC)c2c(ccc3ccccc32)n1,1.85
18,Nn1c(Cc2ccccc2)nnc1Cc1ccccc1,0.55
19,O=C(O)CSc1nc2ccccc2s1,-0.1
20,CN(C)c1nc(Cl)nc2c1nc(Cl)n2C1CCCCO1 (configuration not stated),1.5
21,S=P(N1CC1)(N1CC1)N1CC1,0.75
22,CC(C)c1ccc(-c2nc3ccccc3s2)cc1,0.3
23,CS/C(=N\S(=O)(=O)c1ccccc1)NNC(=O)c1c(-c2c(Cl)cccc2Cl)noc1C,0.65
24,CNC(=O)c1ccccc1Sc1ccc2c(/C=C/c3ccccn3)n[nH]c2c1,0.7
25,S=c1[nH]cc2cnccn12,-1.4
26,Cc1ccc([N+](=O)[O-])cc1NC(=O)Nc1cccc(F)c1,0.45

row,SMILES,T3 sensor activation Q score
1,O=Nc1c(-c2cccc([N+](=O)[O-])c2)nc2ncccn12,-0.1
2,NC(CSC1(c2cccc3ccccc23)c2ccccc2-c2ccccc21)C(=O)O (configuration not stated),-0.55
3,O=C(c1ccc(OCCN2CCCCC2)cc1)c1c(-c2ccc(O)cc2)sc2cc(O)ccc12,2.7
4,O=C(O)c1ccccc1-n1c2ccccc2c2ccccc21,0.2
5,CSc1nc2cc(S(=O)(=O)N3CCCCC3)ccc2s1,0.05
6,ClCC(CNCc1ccccc1)c1ccccc1 (configuration not stated),0.35
7,NS(=O)(=O)c1cc2c(cc1Cl)NC(Cc1ccccc1)NS2(=O)=O (configuration not stated),1.65
8,Cc1ccc(N2CCN(CC(O)COc3cccc(C)c3)CC2)cc1 (configuration not stated),-0.75
9,CNC1(C(N)=O)CCNCC1,-0.85
10,Cn1nc(SCc2ccccc2)c(=O)n(C(c2ccccc2)c2ccccc2)c1=O,-0.65
11,O=C(c1ccccc1)C1C(c2ccccc2)C1[N+](=O)[O-] (configuration not stated),1.7
12,NC(=O)c1cc(C(N)=O)nc(Cl)n1,-0.8
13,CN(/N=N/c1nc[nH]c1C(=O)NN)C1CCCCC1,1.2
14,O=C1CSC(c2cccs2)N1c1nncs1 (configuration not stated),0.05
15,O=[N+]([O-])c1cc2cccnc2c2ncccc12,-2.35
16,CCCn1cnc2c(Sc3c([N+](=O)[O-])ncn3C)nc(N)nc21,-0.25
17,S=c1nc[nH]c2nc[nH]c12,-0.9
18,COc1cccc(OCC(O)CN2CCN(c3ccc(Cl)cc3)CC2)c1 (configuration not stated),-0.4
19,C=CCN1CCN(c2ccncc2S(=O)(=O)N2CCN(C)CC2)CC1,0.2
20,S=C(SCc1cc(Cl)cc2c1OCOC2)N1CCSCC1,-0.4
21,CC(=O)Oc1ccc(OC(C)=O)c2c1CC(C)=C(C)C2,0.8
22,CCOc1nsc(OCC)n1,-0.75
23,CCOC(=O)c1cc(-c2ccccc2)nc2ccc(C)cc12,0.8
24,O=C1CCCc2cc3c(cc21)CC1(C3)Cc2cc3c(cc2C1)C(=O)CCC3,-1.45
25,S=c1[nH]c2ccc(Cl)cc2s1,1.2
26,CCOC(=O)C(C)c1c(C(=O)c2ccc(C)nc2)c2ccccc2n1C (configuration not stated),-0.35

# Four of these compounds in a different format:
row | SMILES | T3 sensor activation Q score
11 | O=C(Nc1nnc(C(F)(F)F)s1)c1c(F)cccc1F | 0.45
26 | Cc1ccc(NC(=O)N2CCCCC2)cc1[N+](=O)[O-] | 1.55
1 | O=Nc1c(-c2cccc([N+](=O)[O-])c2)nc2ncccn12 | -0.1
24 | O=C1CCCc2cc3c(cc21)CC1(C3)Cc2cc3c(cc2C1)C(=O)CCC3 | -1.45

# Following part

row,SMILES,T3 sensor activation Q score
1,O=c1cc(-c2ccccc2)oc2ccc(O)cc12,0.15
2,O=c1[nH]c2c(cnn2-c2ccc(Cl)cc2)c(=O)n1-c1cccc(Cl)c1,1.75
3,OC(COc1cccc2ccccc12)CN1CCN(c2ccccc2Cl)CC1 (configuration not stated),-0.2
4,Cn1ncc2c(Nc3ccccc3Cl)nc(Nc3ccccc3Cl)nc21,0.6
5,CN(C)c1ccc2c(c1)Sc1cc(N(C)C)ccc1N2C(=O)c1ccccc1,-0.3
6,CC1=C(c2ccccc2)C=NNCC1=O,0.2
7,Cc1ccccc1NC(=O)C(=O)Nc1ccccc1C,1
8,CSc1c(N(C)C)c(=O)c1=S,0.45
9,CCN(CC)CCN=c1c(C)nc(C#N)c(N)n1O,0.7
10,CN(C)c1nc(=NCc2ccco2)ss1,-1.15
11,O=c1cc(CO)[nH]nc1CO,-1.25
12,OC[C@@H]1CCC[C@H](n2cnc3c(=S)nc[nH]c32)O1,0.1
13,CCOc1cc2c(Cl)ncnc2c(OCC)c1OCC,0.35
14,O=C(NC(=S)Nc1cccc2c(O)cccc12)c1cccc(Br)c1,-0.75
15,NC(=O)NO,1
16,O=C(Nc1cccc2c1N(C(=O)c1ccco1)CCC2)c1ccco1,1.05
17,CCC(C)Nc1nc2c(c(=O)n(C)c(=O)n2C)n1C (configuration not stated),1.4
18,Nc1ncnc2c1ncn2[C@@H]1C=C(CO)[C@@H](O)[C@H]1O,1.55
19,CO[C@H]1C(=O)[C@]2(C)[C@@H](OC)C[C@H]3OC[C@@]3(OC(C)=O)[C@H]2[C@H](OC(=O)c2ccccc2)[C@]2(O)C[C@H](OC(=O)[C@H](O)[C@@H](NC(=O)OC(C)(C)C)c3ccccc3)C(C)=C1C2(C)C,-1.1
20,CC(O)c1nc2c(c(=O)n(C)c(=O)n2C)n1C (configuration not stated),-0.25
21,NC(=O)c1ccccc1OCC(=O)Nc1ccc(Cl)c(Cl)c1,-1.3
22,O=[N+]([O-])c1[nH]cnc1/C=C/c1ccccc1,-1.15
23,CN=C1C=C/C(=N/N=c2/ccn(O)cc2C)C=C1C,0.15

# Ordered by SMILES length (low to high): 6 of the compounds above
row,SMILES,T3 sensor activation Q score
8,CSc1c(N(C)C)c(=O)c1=S,0.45
6,CC1=C(c2ccccc2)C=NNCC1=O,0.2
13,CCOc1cc2c(Cl)ncnc2c(OCC)c1OCC,0.35
22,O=[N+]([O-])c1[nH]cnc1/C=C/c1ccccc1,-1.15
12,OC[C@@H]1CCC[C@H](n2cnc3c(=S)nc[nH]c32)O1,0.1
18,Nc1ncnc2c1ncn2[C@@H]1C=C(CO)[C@@H](O)[C@H]1O,1.55
